# Results as given in the supplement of paper PMC8728848.
# Some of the results follow.
# B1: cFel (Cyprinus carpio), P68512 (protein)
# chain: LDCTVIDGNLKQIDAGSGSVVGVNNLNETFVLIDNVFTKISGSLKHFSVGPAGQLGVNTANNIFKYQSGGFVQLAGLLKQVDAGGDQIIAGVNMYDDIYCLNMDANNKWPSSNTPWVQINGKLKYYSCGPYSCWGVNSNDQIFIMKDVSSNVCSGSGSFINIPGLLSMIEVATDGSVFGVNSQGNLYQRTGVTRSKPDGTDWISMVACPNGHKHVSFDLGVLWLVCVDGSIRKCILTD
# Assays:
# Assay in all cases: glycan array binding signal (z-score within array); higher = stronger binding
# Settings in all cases: glycan notation: IUPAC condensed, linker removed
# [1] = molecular target: Fuc(a1-2)[Gal(a1-3)]Gal(b1-4)GlcNAc(b1-2)Man(a1-3)[Fuc(a1-2)[Gal(a1-3)]Gal(b1-4)GlcNAc(b1-2)Man(a1-6)]Man(b1-4)GlcNAc(b1-4)GlcNAc
# How it was run: (§1)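 Negative Z-scores can be read as non-binding. The Z-score is calculated within each array and then averaged across arrays of one protein sequence at different concentrations or buffers and across linkers. Arrays, 3228 in all, were curated from the Consortium for Functional Glycomics database and kept only where the protein sequence was available.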
# [2] = molecular target: Fuc(a1-2)[Gal(a1-3)]Gal(b1-4)GlcNAc(b1-2)Man(a1-3)[Fuc(a1-2)[Gal(a1-3)]Gal(b1-4)GlcNAc(b1-2)Man(a1-6)]Man(b1-4)GlcNAc(b1-4)[Fuc(a1-6)]GlcNAc
# How it was run: as §1
# [3] = molecular target: Fuc(a1-2)[Gal(a1-3)]Gal(b1-4)GlcNAc(b1-3)GalNAc
# How it was run: as §1
# [4] = molecular target: Fuc(a1-2)[Gal(a1-3)]Gal(b1-4)GlcNAc(b1-3)[Fuc(a1-2)[Gal(a1-3)]Gal(b1-4)GlcNAc(b1-6)]GalNAc
# How it was run: as §1
# [5] = molecular target: Fuc(a1-2)[Gal(a1-3)]Gal(b1-4)GlcNAc(b1-6)GalNAc
# How it was run: as §1
# [6] = molecular target: Fuc(a1-2)[Gal(a1-3)]Gal(b1-4)[Fuc(a1-3)]Glc
# How it was run: as §1
# [7] = molecular target: Fuc(a1-2)[Gal(a1-3)]Gal(b1-4)[Fuc(a1-3)]GlcNAc
# How it was run: as §1
# [8] = molecular target: Fuc(a1-2)[Gal(a1-3)]Gal(b1-4)[Fuc(a1-3)]GlcNAc(b1-3)GalNAc
# How it was run: as §1
# [9] = molecular target: Fuc(a1-2)[Gal(a1-4)]Gal(b1-4)GlcNAc
# How it was run: as §1
# [10] = molecular target: Fuc(a1-2)[GalNAc(a1-3)]Gal
# How it was run: as §1
# [11] = molecular target: Fuc(a1-2)[GalNAc(a1-3)]Gal(b1-3)GalNAc(a1-3)[Fuc(a1-2)]Gal(b1-4)GlcNAc
# How it was run: as §1
# [12] = molecular target: Fuc(a1-2)[GalNAc(a1-3)]Gal(b1-3)GalNAc(b1-3)Gal(a1-4)Gal(b1-4)Glc
# How it was run: as §1
# [13] = molecular target: Fuc(a1-2)[GalNAc(a1-3)]Gal(b1-3)GlcNAc
# How it was run: as §1
# [14] = molecular target: Fuc(a1-2)[GalNAc(a1-3)]Gal(b1-3)GlcNAc(b1-2)Man(a1-3)[Fuc(a1-2)[GalNAc(a1-3)]Gal(b1-3)GlcNAc(b1-2)Man(a1-6)]Man(b1-4)GlcNAc(b1-4)GlcNAc
# How it was run: as §1
# [15] = molecular target: Fuc(a1-2)[GalNAc(a1-3)]Gal(b1-3)GlcNAc(b1-2)Man(a1-3)[Fuc(a1-2)[GalNAc(a1-3)]Gal(b1-3)GlcNAc(b1-2)Man(a1-6)]Man(b1-4)GlcNAc(b1-4)[Fuc(a1-6)]GlcNAc
# How it was run: as §1
# [16] = molecular target: Fuc(a1-2)[GalNAc(a1-3)]Gal(b1-3)GlcNAc(b1-3)GalNAc
# How it was run: as §1
# [17] = molecular target: Fuc(a1-2)[GalNAc(a1-3)]Gal(b1-3)GlcNAc(b1-6)GalNAc
# How it was run: as §1
# [18] = molecular target: Fuc(a1-2)[GalNAc(a1-3)]Gal(b1-4)Glc
# How it was run: as §1
# [19] = molecular target: Fuc(a1-2)[GalNAc(a1-3)]Gal(b1-4)GlcNAc
# How it was run: as §1
# [20] = molecular target: Fuc(a1-2)[GalNAc(a1-3)]Gal(b1-4)GlcNAc(b1-2)Man
# How it was run: as §1
# [21] = molecular target: Fuc(a1-2)[GalNAc(a1-3)]Gal(b1-4)GlcNAc(b1-2)Man(a1-3)[Fuc(a1-2)[GalNAc(a1-3)]Gal(b1-4)GlcNAc(b1-2)Man(a1-6)]Man(b1-4)GlcNAc(b1-4)GlcNAc
# How it was run: as §1
# [22] = molecular target: Fuc(a1-2)[GalNAc(a1-3)]Gal(b1-4)GlcNAc(b1-2)Man(a1-3)[Fuc(a1-2)[GalNAc(a1-3)]Gal(b1-4)GlcNAc(b1-2)Man(a1-6)]Man(b1-4)GlcNAc(b1-4)[Fuc(a1-6)]GlcNAc
# How it was run: as §1
# [23] = molecular target: Fuc(a1-2)[GalNAc(a1-3)]Gal(b1-4)GlcNAc(b1-3)Gal(b1-4)GlcNAc
# How it was run: as §1
# [24] = molecular target: Fuc(a1-2)[GalNAc(a1-3)]Gal(b1-4)GlcNAc(b1-3)Gal(b1-4)GlcNAc(b1-3)Gal(b1-4)GlcNAc
# How it was run: as §1
# [25] = molecular target: Fuc(a1-2)[GalNAc(a1-3)]Gal(b1-4)GlcNAc(b1-3)GalNAc
# How it was run: as §1
# [26] = molecular target: Fuc(a1-2)[GalNAc(a1-3)]Gal(b1-4)GlcNAc(b1-3)[Fuc(a1-2)[GalNAc(a1-3)]Gal(b1-4)GlcNAc(b1-6)]GalNAc
# How it was run: as §1
# [27] = molecular target: Fuc(a1-2)[GalNAc(a1-3)]Gal(b1-4)GlcNAc(b1-6)GalNAc
# How it was run: as §1
# [28] = molecular target: Fuc(a1-2)[GalNAc(a1-3)]Gal(b1-4)[Fuc(a1-3)]GlcNAc
# How it was run: as §1
# [29] = molecular target: Fuc(a1-2)[GalNAc(a1-3)]Gal(b1-4)[Fuc(a1-3)]GlcNAc(b1-3)GalNAc
# How it was run: as §1
# [30] = molecular target: Fuc(a1-2)[GalNAc(a1-4)]Gal(b1-4)GlcNAc
# How it was run: as §1
binder,measurement,setting,value
B1,glycan array binding signal (z-score),[1],-1.02
same,glycan array binding signal (z-score),[2],-0.701
same,glycan array binding signal (z-score),[3],-0.365
same,glycan array binding signal (z-score),[4],1.29
same,glycan array binding signal (z-score),[5],-0.377
same,glycan array binding signal (z-score),[6],-1.28
same,glycan array binding signal (z-score),[7],0.163
same,glycan array binding signal (z-score),[8],0.69
same,glycan array binding signal (z-score),[9],-0.624
same,glycan array binding signal (z-score),[10],-0.748
same,glycan array binding signal (z-score),[11],1.01
same,glycan array binding signal (z-score),[12],-0.935
same,glycan array binding signal (z-score),[13],-0.173
same,glycan array binding signal (z-score),[14],0.309
same,glycan array binding signal (z-score),[15],3.12
same,glycan array binding signal (z-score),[16],-2.04
same,glycan array binding signal (z-score),[17],2.93
same,glycan array binding signal (z-score),[18],-0.564
same,glycan array binding signal (z-score),[19],-0.741
same,glycan array binding signal (z-score),[20],-1.18
same,glycan array binding signal (z-score),[21],0.117
same,glycan array binding signal (z-score),[22],-0.798
same,glycan array binding signal (z-score),[23],-0.966
same,glycan array binding signal (z-score),[24],0.538
same,glycan array binding signal (z-score),[25],1.01
same,glycan array binding signal (z-score),[26],1.31
same,glycan array binding signal (z-score),[27],0.59
same,glycan array binding signal (z-score),[28],-1.53
same,glycan array binding signal (z-score),[29],-0.096
same,glycan array binding signal (z-score),[30],0.222

# Reformatted: results already given.
binder | measurement | setting | value
B1 | glycan array binding signal (z-score) | [26] | 1.31
same | glycan array binding signal (z-score) | [27] | 0.59
